Reference: PubChem BioAssay AID1259274 (Sanger Institute, 2017)
In all, the deposit lists 794 reagents; this is an unselected part. Of all reagents, 11 (1.4%) got an active call. 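Calls rest on knock-down without drug only; synergy scores with anchor drugs were not used for the essential call.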 Entries without a mark were called inactive. Viability is capped at 1. No sequences are given here. Not given: the amount of reagent, the time to read-out.

- Assay: 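Kinases RKO cells need to grow, alone or with anchor drugs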 (primary screen)
- System: human RKO colorectal cancer cells
- Knock-down reagent: siRNA pool against human genes
- Challenge: anchor drugs BYL719 at 1 µM, cetuximab at 5 µg/ml or trametinib at 10 nM; DMSO vehicle as the no-drug arm
- Measured: 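Viability of cells versus control pool 2 (non-targeting) averaged across replicates; knock-down-only robust z-score; for every anchor drug (BYL719, cetuximab, trametinib) a synergy score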
- Direction: viability z-score, siRNA alone: higher = more viable cells; low values mean essential gene; viability, siRNA alone, vehicle: higher = more viable cells; synergy score with BYL719 and synergy score with Trametinib and synergy score with Cetuximab: higher = stronger combined killing with the drug
- Call rule: 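a single knock-down scoring under -3 on the robust z-score, meaning fewer cells, counts as essential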
- Calls: active = essential when knocked down alone; inactive = no change alone

target gene	viability z-score, siRNA alone	viability, siRNA alone, vehicle (fraction of control)	synergy score with BYL719	synergy score with Trametinib	synergy score with Cetuximab
TSSK1B	1.14	0.996	0.0142	-0.0124	0.0692
PASK	1.19	1	0.0231	-0.097	0.0481
SPEG	-0.623	0.845	-0.113	-0.174	-0.149
EFNB3	0.141	0.91	-0.0197	-0.264	-0.00951
MPP2	-0.692	0.839	0.0144	-0.0183	-0.0645
POMK	0.55	0.945	-0.00626	-0.215	-0.000165
IP6K2	-0.576	0.849	-0.0729	-0.146	-0.116
GNE	-0.811	0.829	-0.133	-0.265	-0.123
DAPK3	0.907	0.976	-0.0421	-0.00964	-0.0243
ALK	0.0403	0.901	-0.00413	-0.126	0.0295
DYRK1A	-0.163	0.884	-0.0519	-0.0711	0.0282
COMMD3	0.0885	0.906	-0.21	-0.256	-0.00297
NR4A2	-2.14	0.715	-0.0323	0.00174	-0.0267
SMAD2	-0.1	0.889	-0.0148	0.0441	0.0677
BPTF	1.19	1	-0.0818	-0.138	0
THNSL1	0.299	0.924	-0.122	0.0344	-0.0461
CKS1B	-0.512	0.854	-0.028	-0.146	-0.146
CDK10	0.335	0.927	-0.031	-0.108	-0.0475
PKMYT1	0.58	0.948	0.0265	-0.109	0.118
DLG1	-0.846	0.826	-0.116	-0.0888	-0.127
PIK3R2	0.917	0.977	-0.0183	-0.0122	0.0592

Sorted by “viability z-score, siRNA alone” (high to low): some entries from above.
target gene	viability z-score, siRNA alone	viability, siRNA alone, vehicle (fraction of control)	synergy score with BYL719	synergy score with Trametinib	synergy score with Cetuximab
DAPK3	0.907	0.976	-0.0421	-0.00964	-0.0243
POMK	0.55	0.945	-0.00626	-0.215	-0.000165
EFNB3	0.141	0.91	-0.0197	-0.264	-0.00951
ALK	0.0403	0.901	-0.00413	-0.126	0.0295
DYRK1A	-0.163	0.884	-0.0519	-0.0711	0.0282
IP6K2	-0.576	0.849	-0.0729	-0.146	-0.116
MPP2	-0.692	0.839	0.0144	-0.0183	-0.0645
GNE	-0.811	0.829	-0.133	-0.265	-0.123

Further reagents follow:
target gene	viability z-score, siRNA alone	viability, siRNA alone, vehicle (fraction of control)	synergy score with BYL719	synergy score with Trametinib	synergy score with Cetuximab
MAP3K12	-0.252	0.876	-0.121	-0.24	-0.124
STK10	1.19	1	-0.0833	-0.056	0
PHKB	0.739	0.961	-0.119	-0.0828	0.0835
PLK1	-5.94 (active)	0.389	-0.0455	-0.0216	-0.0828
PFKP	0.721	0.96	0.0301	-0.105	0.02
MAP3K8	-0.651	0.842	-0.113	-0.221	-0.0623
CDK17	0.283	0.922	-0.0805	-0.177	-0.0777
DTYMK	0.185	0.914	-0.0882	-0.134	0.121
MARK3	1.19	1	0.0264	-0.225	0.185
BMP2K	0.0254	0.9	-0.08	-0.0151	-0.00252
TRIB1	1.19	1	0.0675	-0.252	0.0955
MAP3K14	-0.617	0.845	-0.0911	-0.0783	-0.155
RSKR	0.494	0.94	-0.0876	-0.123	-0.0436
JAK2	1.19	1	0.0361	-0.329	0.162
TYRO3	0.9	0.975	-0.0214	-0.0688	0.0213
PDIK1L	0.039	0.901	-0.0987	-0.15	0.00794
TLK2	-0.493	0.856	-0.175	-0.207	-0.073
PIP5K1A	-0.641	0.843	-0.0526	-0.107	-0.0317
CAMK1	-0.583	0.848	-0.18	-0.236	-0.0172
PKDCC	-0.3	0.872	-0.0482	-0.158	-0.0863
NME4	1.19	1	-0.0624	-0.0874	0.0338
TAOK3	-1.26	0.79	0.018	-0.0058	-0.113
AK1	-0.00402	0.898	-0.0395	-0.2	-0.0951
PHKA2	-0.063	0.893	-0.12	-0.113	-0.0662
PIK3R1	0.135	0.91	-0.0787	-0.253	-0.0206
ACO1	0.271	0.921	0.0197	-0.0494	0.0287
NEK8	-1.63	0.759	-0.0881	-0.0368	-0.109
PANK1	0.223	0.917	-0.24	-0.18	0.0613
PIK3CG	-1.02	0.81	-0.0263	-0.115	0.000665
